Our source for the inhibition zone (IZ) values is ChEMBL document CHEMBL1144115, “Antibacterial diterpenoid acids from Azorella compacta” (1999).

This assay relates to Candida albicans. The experiment in a line: Antimicrobial activity against Candida albicans at 100 ug after 18 hrs by agar diffusion test. Format: functional, organism-based.

Turning to NYSTATIN, the inhibition zone (IZ) amounted to 16 mm.
